Assay results: the supplement of paper PMC3334620
Whole data set: some 33,000 sequences, median “E-score (-0.5 to 0.5)” near -0.0014, cut for the highest 2% near 0.25. The list shows a part of the results.

target: T1, Cad1 (UniProt P24813); assay: PBM E-score (8-mer binding enrichment) (E-score (-0.5 to 0.5)); higher = stronger / more preferred TF binding; conditions: protein concentration: 100 nM; construct: GST-full length
T1 sequence: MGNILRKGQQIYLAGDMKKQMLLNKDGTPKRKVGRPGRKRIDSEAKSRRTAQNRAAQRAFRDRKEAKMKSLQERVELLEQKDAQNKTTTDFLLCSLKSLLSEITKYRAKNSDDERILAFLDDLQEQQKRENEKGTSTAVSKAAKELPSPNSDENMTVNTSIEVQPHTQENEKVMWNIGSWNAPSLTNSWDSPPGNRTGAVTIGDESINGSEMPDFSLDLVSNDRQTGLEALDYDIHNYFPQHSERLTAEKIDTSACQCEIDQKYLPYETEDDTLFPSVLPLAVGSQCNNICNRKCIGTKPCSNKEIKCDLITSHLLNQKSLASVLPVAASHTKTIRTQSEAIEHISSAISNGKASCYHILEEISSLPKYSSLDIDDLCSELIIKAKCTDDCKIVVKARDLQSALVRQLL
Experimental: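 Universal 'all 10-mer' protein binding microarrays (Agilent AMADID 015681) probed with GST-tagged S. cerevisiae TFs (full-length or DBD) made by in vitro transcription/translation (PURExpress), about 100-200 nM. Bound TF was detected with fluorescent anti-GST. Each ungapped 8-mer (which stands for itself and its reverse complement) is scored by the PBM enrichment score (E-score), a modified Wilcoxon-Mann-Whitney statistic from -0.5 to +0.5, computed with the Universal PBM Analysis Suite. Scale: above 0.35 generally sequence-specific binding.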

In order of falling “PBM E-score” value:
1. ATAATTAG  0.285
2. AATATTAA  0.281
3. AAATGATT  0.261
4. CACGAACA  0.249
5. GTACGAAC  0.249
6. GTATGATA  0.23
7. GCGAATCA  0.227
8. CATGTATA  0.22
9. CTGACGAA  0.209
10. ATCATTAG  0.196
11. AGCGAACA  0.195
12. AGTTGATA  0.19
13. ACGAACAA  0.184
14. CGCGTGTC  0.175
15. ATATATGA  0.172
16. GGTATTCA  0.172
17. ACGCGAAA  0.17
18. ATAACGTA  0.164
19. AGTGTTTC  0.155
20. ATTCGAAC  0.153
21. CCCCACCA  0.153
22. AGCAAACC  0.15
23. ACGAGGCG  0.147
24. ACGATCGC  0.144
25. ATTAGTGA  0.14
26. ATACTCGG  0.139
27. CAATAAAG  0.132
28. AGATATCC  0.128
29. GCGCTGCA  0.124
30. TGTTTAAA  0.123
31. ATTTCCAC  0.12
32. GTAAGAAA  0.119
33. ATGCTGTG  0.117
34. ATCATACA  0.114
35. CTTGGTCA  0.109
36. TAAGAGCA  0.108
37. ACGCGCAT  0.105
38. AACAACGC  0.102
39. GACAATTA  0.101
40. CTGGAACA  0.099
41. AAAACTGT  0.0985
42. CATCCACC  0.0969
43. CTTTCGTA  0.0939
44. GCAGGCGC  0.0926
45. ATTTTAGC  0.0914
46. ACGAACCG  0.0904
47. ATTAAAGG  0.0901
48. AGCACTCC  0.0892
49. ACTGTGTC  0.0874
50. CAATGGTA  0.0824
51. CTCGATCA  0.0804
52. ACAGGGCA  0.0797
53. CATAACCA  0.0773
54. CTGAACAG  0.0772
55. ACGTCAAA  0.0749
56. CACGCACA  0.0737
57. ACCAACCG  0.0729
58. GGATTTCA  0.0726
59. AATTGGTC  0.0715
60. GTTTCGAA  0.0707
61. CGCTCATC  0.0707
62. GCAGAACA  0.0554
63. GAAGAATA  0.0544
64. TCCGTGAA  0.0445
65. GCGCTCCC  0.0441
66. CCCGCTGC  0.0423
67. ACCATGTG  0.0405
68. GCACTGCA  0.0382
69. TATGGGCA  0.0378
70. CCAGACCG  0.0363
71. ACAGCTAA  0.0315
72. ATTAGGTG  0.0296
73. ACTTACGC  0.0274
74. GCCACACA  0.0268
75. AAACTTAC  0.0226
76. GACTCACA  0.0214
77. TGCTCACA  0.0213
78. GTACAAAC  0.0182
79. CGCGCTGC  0.0168
80. AAGAATAC  0.012
81. CGGAGTAG  0.00793
82. CGTTATGA  0.00642
83. ACAATCAC  0.00448
84. TATGGTAA  0.00048
85. GAAACTTC  -0.00251
86. AGATCTAT  -0.0031
87. GCGGAAGA  -0.00472
88. TGGATGAA  -0.00755
89. AGCCTCGC  -0.00785
90. GCCGGCTA  -0.00817
91. CACCCTTA  -0.0112
92. GACTCTGA  -0.0113
93. ATCTAGTC  -0.0127
94. AGTGCTGA  -0.0168
95. GTGAGTCA  -0.0176
96. AAAGCGTC  -0.0209
97. ACGAATAA  -0.0279
98. AGATAGCT  -0.0292
99. GTCGGGGA  -0.0306
100. GTCTTATA  -0.0332
101. GACCAGAA  -0.0367
102. CAGATCGC  -0.038
103. AGTTGAAC  -0.0384
104. AACGAGTC  -0.0441
105. TCCTGGCA  -0.0466
106. ACGGCGGC  -0.0474
107. GTAAAGGA  -0.0509
108. GAACAAGC  -0.0511
109. ATGTCAGA  -0.0566
110. AGGGACAA  -0.0582
111. CACGTCAA  -0.0595
112. GAAAAGCC  -0.0605
113. GGGCCTTA  -0.0621
114. GACGCTAA  -0.0633
115. GCGTGGAA  -0.0709
116. GCACGCTA  -0.0753
117. GACGTACC  -0.0757
118. AGCCTAAT  -0.0781
119. CTACTGGA  -0.0843
120. GGCATGTA  -0.0847
121. CAGATAAG  -0.0871
122. GCGCACGC  -0.0892
123. AGTCACTC  -0.0896
124. ATATCCCC  -0.102
125. CGGTCCAG  -0.103
126. ATGGGTCC  -0.104
127. ATGTTTGA  -0.106
128. GCCAGGCA  -0.11
129. GCGAGGCC  -0.113
130. CACCTGTC  -0.116
131. CTGGCTAA  -0.119
132. CGTCCTCC  -0.12
133. AGTGTAAC  -0.122
134. TCCCATCA  -0.124
135. CGCCGGGA  -0.126
136. AGCATTGG  -0.128
137. CGGTCACG  -0.131
138. AGAGTCGA  -0.134
139. AAAGTACT  -0.134
140. CGGGTACC  -0.136
141. CCAAGGCC  -0.144
142. GCCGGGCC  -0.145
143. CACTTGAG  -0.16
144. ACCTGGTA  -0.161
145. ATCTGGAC  -0.162
146. GTCCCGCA  -0.165
147. ATGGGATC  -0.166
148. CGGGGACG  -0.168
149. ACGGTCCC  -0.169
150. ATCCGTCC  -0.171
151. AATTAGGG  -0.172
152. AGCAGCTC  -0.174
153. TCCTTGCA  -0.179
154. AGCTCTTG  -0.197
155. AGGTCTCG  -0.2
156. ATGAGTGG  -0.201
157. AGCTAAAC  -0.209
158. GGGTCACC  -0.209
159. CCCTTACC  -0.215
160. AGGGCTAC  -0.22
161. AGGTCAGG  -0.226
162. GCTTAGAC  -0.238
163. AGCGGGAG  -0.246
164. ACGCTAGG  -0.265
165. CCCCTGGA  -0.272
166. AAGGCCCC  -0.278
167. CCGAGGAG  -0.284
168. GCGGCCCC  -0.287
169. AGGGAGCC  -0.297
170. CGCCCCCG  -0.333
171. AGCCCCCA  -0.369
172. ACCCCCTA  -0.408
